Article PMC6925144, “A prospective compound screening contest identified broader inhibitors for Sirtuin 1” (Scientific Reports, 2019)
In all, about 3,200 compounds were measured (“TSA(without NAD+) / Primary screening (TSA) / delta Tm (K)”: median about -0.07, highest 2% from about 0.37 on). Some of the results follow.

Chains of the proteins cited; added tags and fusions are not shown. Residues count along the entry.
UniProt Q96EB6, 2-747 limits assumed: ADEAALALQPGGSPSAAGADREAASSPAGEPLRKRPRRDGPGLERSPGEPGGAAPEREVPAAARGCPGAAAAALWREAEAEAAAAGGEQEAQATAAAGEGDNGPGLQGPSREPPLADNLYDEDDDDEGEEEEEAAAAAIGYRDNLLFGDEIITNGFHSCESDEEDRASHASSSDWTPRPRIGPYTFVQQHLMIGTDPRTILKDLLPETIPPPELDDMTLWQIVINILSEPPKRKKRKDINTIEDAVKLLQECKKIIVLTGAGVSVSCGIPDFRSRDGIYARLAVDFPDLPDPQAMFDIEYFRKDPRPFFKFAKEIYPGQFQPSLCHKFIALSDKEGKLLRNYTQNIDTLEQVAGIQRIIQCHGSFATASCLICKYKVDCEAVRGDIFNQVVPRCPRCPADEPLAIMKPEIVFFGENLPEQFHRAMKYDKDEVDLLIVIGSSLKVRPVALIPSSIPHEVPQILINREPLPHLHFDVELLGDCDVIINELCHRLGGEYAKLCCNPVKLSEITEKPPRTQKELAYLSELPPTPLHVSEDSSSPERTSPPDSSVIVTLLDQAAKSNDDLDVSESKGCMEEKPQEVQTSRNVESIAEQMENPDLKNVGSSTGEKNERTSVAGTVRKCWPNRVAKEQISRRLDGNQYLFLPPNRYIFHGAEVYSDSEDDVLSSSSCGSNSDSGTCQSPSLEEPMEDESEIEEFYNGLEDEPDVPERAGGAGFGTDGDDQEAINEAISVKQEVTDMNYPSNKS

What follows are compounds tested against NAD-dependent deacetylase Sirtuin 1 (human, UniProt Q96EB6) (assay: primary screen, delta tm). Details: 10 µM.
Parameters: single well (n = 1)
Procedure, shortened: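 Thermal shift of Sirtuin 1 measured without NAD+, compound at 10 µM (n = 1); value is ΔTm, with hits defined as ΔTm > 0.45 K or < −1.5 K. Hits retested at 5, 10, 20 µM (n = 4) and counterscreened on bovine carbonic anhydrase and ABL1 SH2 domain.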

Row | Compound | TSA(without NAD+) / Primary screening (TSA) / delta Tm (K)
1 | CN(Cc1cnn(Cc2ccccc2)c1)C(=O)CCc1ncc(-c2c(F)cccc2F)o1 | -0.03
2 | Cn1c(=O)[nH]c(=O)c2c1nc(N1CCC(C(N)=O)CC1)n2CCSc1ncccn1 | -0.07
3 | NC(=O)c1ccc(OCC(=O)N(CCc2ccccc2)Cc2ccccc2)cc1 | -0.27
4 | C[C@H]1CNCCN1 | -0.08
5 | CC(C)(C)OC(=O)NC1CCN(CC(=O)NCCNc2ncnc3sccc23)CC1 | 0.25
6 | COc1ccccc1NS(=O)(=O)c1cccc(NC(=O)c2oc3ccccc3c2CSC)c1 | 0.18
7 | O=C(c1ccccc1)C(Sc1nc(-c2ccccc2)n[nH]1)c1ccccc1 (centres unmarked) | 0.08
8 | O=C(O)CNCC(=O)O | 0.05
9 | O=C(OCc1cc(=O)n2c(n1)sc1ccccc12)c1ccc2[nH]c3c(c2c1)CCCC3 | 0.25
10 | CC1(C)Cc2cccc(OCC(=O)OCC(=O)Nc3ccc(C(N)=O)cc3)c2O1 | 0.03
11 | O=C(CCCc1nc2ccccc2c(=O)[nH]1)NC1CCCc2ccccc21 (centres unmarked) | -0.23
12 | O=C(Cn1[nH]c(=O)c2ccccc2c1=O)NC1CCCc2ccccc21 (centres unmarked) | 0.19
13 | Cc1nc2ccccc2c(C)c1CC(=O)NC1CCCc2ccccc21 (centres unmarked) | -0.07
14 | CC1CN(C(=O)c2ccc(NC(=O)C3=COCCC3)cc2)CC(C)O1 (centres unmarked) | -0.02
15 | CC(CN)CN | 0.08
16 | NC(=O)NCCCCC(=O)Nc1cccc(C(F)(F)F)c1 | -0.07
17 | COc1ccc(/C=N/c2ccc(C)cc2)cc1 | 0.07
18 | Cc1nc2c(C(N)=O)ncn2c(C)c1CCC(=O)NC(c1cccs1)C(C)C (centres unmarked) | -0.11
19 | Cc1cc(C#N)ccc1S(=O)(=O)NCCC(C)N (centres unmarked) | -0.23
20 | O=C(COC(=O)CN1C(=O)c2ccccc2S1(=O)=O)Nc1ccccc1SCc1ccccc1 | 0.09
21 | NC(=O)c1ccc(F)c(NC(=O)C2CCCc3cccnc32)c1 (centres unmarked) | -0.08
22 | O=C(CN1c2cccc3cccc(c23)S1(=O)=O)c1c[nH]c2ccccc12 | 0.08
23 | Cc1nc(N2CCC(C(N)=O)CC2)c2c3c(sc2n1)CCCCC3 | 0.78

Row | Compound | TSA(without NAD+) / Primary screening (TSA) / delta Tm (K)
24 | O=C(Cc1ccccc1OC(F)F)Nc1cccc(-c2nnn[nH]2)c1 | -0.18
25 | C/C(NCc1ccccc1)=C1/Sc2ccccc2C1=O | 0.09
26 | O=C(Nc1ccc(Oc2ncccn2)cc1)c1ccc(S(=O)(=O)Nc2ccc(F)cc2)cc1 | -0.11
27 | COC(=O)c1ccc(C2NC(=O)NC3=C2C(=O)N(CC(C)O)C3)cc1 (centres unmarked) | 0.02
28 | COC(=O)c1ccc(C2C(C(=O)c3sc(C)nc3C)=C(O)C(=O)N2CCCN2CCOCC2)cc1 (centres unmarked) | -0.03
29 | O=C(Nc1ccc(NC(=O)N2CCCCCC2)cc1)c1nc(Cl)ccc1Cl | 0.07
30 | O=C(CN1C(=O)c2ccccc2C1=O)c1ccc2c(c1)-c1ccccc1C2 | -0.12
31 | CC(=O)c1cc(C(=O)NCCc2ccc(-c3csc(C)n3)s2)n(C)c1 | 0.12
32 | CC1=NNC(=O)/C1=C\c1cn(-c2ccccc2)nc1-c1cc2cc(Br)ccc2oc1=O | -0.23
33 | CCCc1nnc(S)[nH]1 | -0.22
34 | O=C(NCCc1ccc(Cl)s1)NC1CC1 | -0.04
35 | NC(=O)c1ccc(COC(=O)c2ccc3c(c2)OCC(=O)N3)cc1 | 0.07
36 | CC(C)Cc1cc(C(=O)n2ncc(C#N)c2N)[nH]n1 | -0.12
37 | CCCOc1ccc(C(=O)C2=C(O)C(=O)N(CCCN3CCOCC3)C2c2cccs2)cc1 (centres unmarked) | -0.12
38 | Cc1onc(-c2ccccc2)c1C(=O)Nc1cccc2c1CCCC2 | 0.02
39 | CN(C(=O)CSc1ccccc1C(=O)OCc1cccc(S(=O)(=O)N(C)C)c1)C1CCCCC1 | -0.23
40 | COC(=O)CC1c2cc(OC)c(OC)cc2CCN1Cc1ccc(C(N)=O)cc1 (centres unmarked) | -0.32
41 | O=C(Cc1csc(-c2ccccc2)n1)Nc1ccc(N2CCN(Cc3ccccc3)CC2)cc1 | 0.02
42 | CCOc1cc(C(=O)Nc2ncc(Cc3cccc(C)c3)s2)ccc1OCC(=O)N1CCCCC1 | 0.13
43 | c1ccc2c(c1)oc1c(N3CCC4(CCOC4)C3)ncnc12 (centres unmarked) | 0.06
44 | O=C(c1cc2cc(F)ccc2[nH]1)N1CCN(c2ncnc3sccc23)CC1 | -0.07
45 | CC1CN(C(C(=O)Nc2cnc3ccccc3c2)C(C)C)CC(C)O1 (centres unmarked) | -0.05
46 | CCOC(=O)c1sc(NC(=O)c2cnc3ccccc3n2)nc1-c1ccccc1 | -0.05

In a second layout: entries from further up
O=C(NCCc1ccc(Cl)s1)NC1CC1
  TSA(without NAD+) / Primary screening (TSA) / delta Tm (K): -0.04
NC(=O)c1ccc(COC(=O)c2ccc3c(c2)OCC(=O)N3)cc1
  TSA(without NAD+) / Primary screening (TSA) / delta Tm (K): 0.07
CC(C)Cc1cc(C(=O)n2ncc(C#N)c2N)[nH]n1
  TSA(without NAD+) / Primary screening (TSA) / delta Tm (K): -0.12

Going on with the list:

Row | Compound | TSA(without NAD+) / Primary screening (TSA) / delta Tm (K)
47 | Cn1c(SC2CCOC2=O)nc2ccccc21 (centres unmarked) | -0.01
48 | Cc1ccc(OCc2nc3ccccc3n2Cc2ccccc2C)cc1 | -0.21
49 | CCSCCC(=O)O | -0.02
50 | O=C1NC2(CCc3ccccc3C2)C(=O)N1Cc1nc2ccccc2s1 (centres unmarked) | -0.05
51 | CCCC(C)NC(=O)COC(=O)C1CCC(=O)N(c2ccc(OC)cc2)C1c1ccc(OC)cc1 (centres unmarked) | -0.23
52 | O=C(O)c1ccc2[nH]ccc2c1 | 0.05
53 | O=C1CCCCCN1Cc1nnc(Sc2ncnc3cc(-c4ccc(Cl)cc4)sc23)o1 | -0.17
54 | NCC(O)C1CC1 (centres unmarked) | -0.31
55 | Clc1ccc(-c2nnn[nH]2)cc1 | -0.02
56 | COc1ccc(NC(=O)CCc2ccc(F)c(F)c2)cc1OCc1cn2ccccc2n1 | -0.02
57 | CCCc1nnc(SC(C)C(=O)Nc2ccc(C(N)=O)cc2)n1CC(=O)O (centres unmarked) | -0.13
58 | NC(=O)c1c(NC(=O)CSc2nc3scc(-c4cccs4)c3c(=O)n2-c2ccccc2)sc2c1CCC2 | -0.28
59 | O=C1NC(=S)NC(=O)C1=NNc1ccc(SC(F)F)cc1 | -0.11
60 | COc1ccc(C(=O)C2=C(O)C(=O)N(CCCN3CCOCC3)C2c2ccccn2)cc1 (centres unmarked) | 0.09
61 | NC(=O)Cn1cnc2c(cnn2-c2ccccc2)c1=O | -0.08
62 | Cc1nnc(CN2CCN(CC(O)COCc3ccco3)CC2)n1C (centres unmarked) | -0.04
63 | CCOc1ccc(C2C(C(=O)/C=C/c3ccco3)=C(O)C(=O)N2CCCN2CCOCC2)cc1OC (centres unmarked) | -0.17
64 | NC(=O)c1ccc(N2CCCC2)c(NC(=O)c2cn(Cc3ccccc3)nn2)c1 | 0.12
65 | COc1ccc2cc(C(=O)O)c(C)nc2c1 | -0.27
66 | CN1c2ccccc2C(=O)NC1c1cccc(C(F)(F)F)c1 (centres unmarked) | -0.12
67 | O=C(NCc1ccc[nH]1)C(=O)Nc1ccc2c(c1)CCC2 | -0.18
68 | O=C1/C(=C\c2cc(Br)cc(Br)c2O)CC/C1=C\c1cc(Br)cc(Br)c1O | 0.55
69 | N=C1c2ccccc2CN1c1ccc(-c2ccc(N3Cc4ccccc4C3=N)cc2)cc1 | -0.33

Quoted at random: 2 entries already listed.
Row | Compound | TSA(without NAD+) / Primary screening (TSA) / delta Tm (K)
69 | N=C1c2ccccc2CN1c1ccc(-c2ccc(N3Cc4ccccc4C3=N)cc2)cc1 | -0.33
61 | NC(=O)Cn1cnc2c(cnn2-c2ccccc2)c1=O | -0.08

Later entries.

Row | Compound | TSA(without NAD+) / Primary screening (TSA) / delta Tm (K)
70 | COc1ccc(CCNC(=O)/C=C/c2ccc3ccccc3n2)cc1OC | -0.01
71 | CCn1cnc2c(N3CC4CCCCCC43)ncnc21 (centres unmarked) | -0.03
72 | Cc1ccc(NC(=O)c2ccc(Cl)nc2Cl)cc1F | 0.12
73 | CC(NC(=O)COC(=O)c1ccc2c(c1)S(=O)(=O)c1ccccc1C2=O)C12CC3CC(CC(C3)C1)C2 (centres unmarked) | 0.17
74 | NCc1nc2c(cnn2-c2ccccc2)c(=O)[nH]1 | -1.92
75 | COC(=O)CCC(=O)NNC(=O)CCC(=O)Nc1ccc(C)c(C)c1 | -0.12
76 | Cc1nn(C)c2ncc(S(=O)(=O)N(C)c3ccc4ccccc4c3)cc12 | 0.02
77 | Cc1ccc(C(=O)C(OC(=O)c2c(C)noc2C)c2ccc(C)cc2)cc1 (centres unmarked) | -0.22
78 | NC(=O)c1ccc(NC(=O)c2ccccc2S(=O)(=O)N2CCCCC2)cc1 | 0.15
79 | O=C(CSC1=N/C(=C\c2ccccc2)C(=O)N1c1ccc(F)cc1)c1c[nH]c2ccccc12 | -0.02
80 | Cc1ccccc1C(=O)N1CCC(C(=O)Nc2ccc(N3CCN(Cc4ccccc4)CC3)cc2)CC1 | -0.24
81 | NC(=O)C1CCCN(c2ncnc3ccsc23)C1 (centres unmarked) | -0.15
82 | O=C(NCc1cccc(OCc2ccccn2)c1)Nc1ccc(C(=O)N2CCCCCC2)cc1 | 0.06
83 | O=C(CN1CCN(Cc2ccsc2)CC1)Nc1ccc(N2CCCC2=O)cc1 | -0.12
84 | COc1ccc2cc(C(=O)N(C)CC(=O)O)c(C)nc2c1 | -0.18
85 | CC1(c2ccc(C#N)cc2)NC(=O)N(CC(=O)Nc2ccc(C(N)=O)cc2)C1=O (centres unmarked) | -0.04
86 | COc1cccc(C(=O)C2=C(O)C(=O)N(CCCN3CCOCC3)C2c2cccs2)c1 (centres unmarked) | 0.02
87 | NC(=O)c1ccc(OCC(=O)NC(=O)NCc2cccs2)cc1 | 0.03
88 | O=C(c1ccc2c(=O)[nH]c(S)nc2c1)N1CCN(C(=O)c2cnccn2)CC1 | -0.13
89 | O=C1NC(=S)NC(=O)C1=Cc1ccc(N2CCOCC2)cc1 | -0.18
90 | O=C(Nc1cnc2ccccc2c1)C(=O)N1CCCC1c1ccsc1 (centres unmarked) | -0.12
91 | NS(=O)(=O)c1ccc(CCNC(=O)COC(=O)C23CC4CC(C2)CC(c2ccccc2)(C4)C3)cc1 | -0.07
92 | COc1ccc(N(C)S(=O)(=O)c2cccc(C(=O)Nc3ccc(Cl)cc3)c2)cc1 | 0.36
